TcHisRS: 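Enzyme assay of histidyl-tRNA synthetase; the read-out is not stated. Target: Histidine-tRNA ligase, Trypanosoma cruzi CL Brener (UniProt Q4DA54). Compounds at 30 µM. Higher reads as stronger inhibition (inferred: compounds with an IC50 in retests scored well above the rest). Size under these conditions: about 69,000 compounds, about 31 of them at 50% or above in at least one test.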
CoaBC: 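Coenzyme A biosynthesis protein CoaBC, Mycobacterium tuberculosis (UniProt P9WNZ1). Enzyme assay of CoaBC with a phosphate dye (Biomol Green) read at 650 nm. Concentration: 30 µM. Direction is inferred from only a few compounds that gave an IC50; most scored high, so higher reads as stronger inhibition. Most strong results did not repeat in a second test. Of about 67,000 compounds tested this way, about 40 (0.06%) reached 50% or more in at least one test.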

Chains of the proteins cited; added tags and fusions are not shown. Residues count along the entry.
UniProt Q4DA54, 1-478: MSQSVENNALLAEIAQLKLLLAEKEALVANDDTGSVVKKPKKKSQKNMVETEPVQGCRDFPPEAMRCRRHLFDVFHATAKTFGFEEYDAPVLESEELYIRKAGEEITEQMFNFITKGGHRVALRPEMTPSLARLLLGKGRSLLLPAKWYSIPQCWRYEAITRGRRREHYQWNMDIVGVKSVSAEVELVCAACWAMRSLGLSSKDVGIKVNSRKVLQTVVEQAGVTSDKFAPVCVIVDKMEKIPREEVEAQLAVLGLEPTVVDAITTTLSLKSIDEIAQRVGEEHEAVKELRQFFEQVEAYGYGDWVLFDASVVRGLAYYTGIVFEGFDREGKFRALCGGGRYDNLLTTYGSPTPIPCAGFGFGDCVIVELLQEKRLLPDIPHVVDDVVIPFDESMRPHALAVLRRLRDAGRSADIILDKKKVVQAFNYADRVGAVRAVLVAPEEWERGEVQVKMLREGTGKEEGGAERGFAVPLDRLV
UniProt P9WNZ1, whole entry: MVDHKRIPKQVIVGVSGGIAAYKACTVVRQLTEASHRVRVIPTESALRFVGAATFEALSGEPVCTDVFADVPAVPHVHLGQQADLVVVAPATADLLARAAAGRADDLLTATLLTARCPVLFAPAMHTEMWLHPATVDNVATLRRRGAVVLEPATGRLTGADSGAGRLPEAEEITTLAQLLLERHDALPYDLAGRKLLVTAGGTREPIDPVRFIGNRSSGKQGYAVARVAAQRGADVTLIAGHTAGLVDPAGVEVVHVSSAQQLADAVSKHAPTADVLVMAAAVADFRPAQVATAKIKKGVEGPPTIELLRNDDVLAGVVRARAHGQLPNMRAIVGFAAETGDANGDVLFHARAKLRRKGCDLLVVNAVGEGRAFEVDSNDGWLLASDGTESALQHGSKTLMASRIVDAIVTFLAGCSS

The filed quantity is “Percent Effect” (%).
The controls that fix the scale are not given in the record; negative values are as filed.
Compounds were drawn at random from those tested, without regard to their results.

structure,TcHisRS,CoaBC
CCN(CC)CCCNCC1CCOC(C)(C)C1 (stereo not drawn),8,3.821
Cc1cc(C)n(CC2CN(Cc3ccccn3)CCO2)n1 (stereo not drawn),2.353,3.069
COc1ccc(Cl)cc1NC(=O)CN1CCc2nc(NC(C)=O)sc2C1,-2.424,2.299
Cc1cc(NC(=O)NCc2ccncc2)ccc1OC(C)C,13.33,-15.29
Cc1ccc(CNC2(Cc3cc(CO)on3)COC2)o1,6.522,6.402
O=C(COCC1CC1)Nc1ncccc1I,9.052,4.689
Cc1ccc(-n2ccnc2)c(C(=O)NCCOCC(F)(F)F)c1,7.097,1.208
COC(=O)CC(c1cccc(OC(F)F)c1)c1oc(C)cc(=O)c1O (stereo not drawn),0,-1.781
CC(=O)N(Cc1ncc(C)o1)C1CCN(CCn2cccn2)C1 (stereo not drawn),18.07,-0.7634
Cn1ncc2c(=O)[nH]c(CN3CCCc4cc(F)ccc43)nc21,2.597,8.78
Cc1nc(C)n(CC2CCCCN2CCCC#N)n1 (stereo not drawn),2.062,6.357
Cn1cnc2c1CCN(CCCOc1ccc(C#N)cc1)C2,2.256,6.427
CN(C)C(=O)c1nc(CN2C(=O)OC[C@@H]2c2ccccc2)no1,-2.463,2.903
O=C(c1ccc[nH]1)N1CCN(C(c2ccccc2)C(F)(F)F)CC1 (stereo not drawn),3.448,6.746
O=C(CSCCN1CCOCC1)N1CCc2ccccc2C1,7,2.479
Cc1nc2c(c(N3CC=CC3)n1)CCN(c1ncccc1C(N)=O)CC2,0.5236,-3.086
O=c1[nH]c2ccccc2cc1CNCCCN1CCOCC1,0,2.206
Cc1cccc(CNC2CCCc3c2cnn3Cc2ccccc2)c1 (stereo not drawn),9.593,7.567
CCC(CO)NCc1ccc(-c2ccc(F)cc2)o1 (stereo not drawn),10.31,5.817
Cc1ccccc1C(=O)N1C[C@@H]2[C@@H](CN(C)CCc3ccccn3)[C@@H]2C1,9.827,-2.978
CC(C(N)=O)n1nc(-c2cccs2)cc(N)c1=O (stereo not drawn),3.448,-2.913
CS(=O)(=O)c1cccc(C(=O)NCc2nc3cc(F)ccc3[nH]2)c1,6.931,2.67
C1CCC(N2CCCN(c3nc(C4CC4)no3)CC2)C1,4.712,1.071
CCCC(=O)NC1CCN(c2ccccc2S(=O)(=O)CC)CC1,2.339,6.633
Cc1nccn1-c1cc(CNC(=O)c2ccnc(N(C)C)c2)ccn1,3.093,-0.7335
CN(C)C(=O)c1cc2c(nc1NCC1CC1)CCNCC2,3.738,0.7407
CN(CC1CCCC1)C(=O)c1cn(C)nc1-c1cccnc1,7.563,1.613
Cc1cc(C)nc(N2CCC(c3cncc(-n4ccnc4)n3)CC2)n1,14.29,3.641
Cc1cnn(CC2CN(CCc3ccncc3)CCO2)c1 (stereo not drawn),0,-0.2132
CC(=O)c1c(F)cccc1N1CCC(NS(=O)(=O)c2ccccc2)CC1,-1.02,9.091
COc1cc(N2CCn3cc(CNc4ccccn4)nc3C2)ncn1,9.453,-5.161
Cn1cc(C(=O)Nc2cccc(Oc3ccncc3)c2)ccc1=O,3.704,-2.851
CN1CCC(NC(=O)c2cc(Cl)cc(Br)c2O)C1=O (stereo not drawn),13.07,-1.294
Cc1ccc(NCc2cnc3n2CCN(c2ncccn2)CC3)nn1,3.738,-4.198
CCOc1ccc(Cl)c(C(=O)N2CCN(c3ncccn3)CC2)n1,3.448,-2.968
Cc1nc2cc(-c3nccn3C)nn2c(N2CCCC(O)C2)c1C (stereo not drawn),-4.545,7.398
CCN1CCN(c2ccc(C(=O)NCc3cc(C)no3)cc2F)CC1,10.59,-1.229
CN(C)CC(=O)N1CCc2onc(Cn3cccn3)c2C1,0.8264,-0.4202
Cc1ccc(-c2nc(CNCC3CN(C)CCO3)co2)cc1 (stereo not drawn),6.977,19.74
CCn1ccnc1CN1CCN(C(C)C(=O)NCc2ccco2)CC1 (stereo not drawn),-2.762,4.018
CCc1c(C)sc2nc3n(CC(N)=O)nc(SC)n3c(=O)c12,0,-1.646
Fc1ccc(C(NCc2nnc(C3CC3)o2)C2CCC2)cc1 (stereo not drawn),2.924,-1.01
Cc1cnc(N2CCC3(CC(=O)N(Cc4csc(C)n4)C3)C2)nc1 (stereo not drawn),6.098,12.28
Cc1ccc(C)c(NC(=O)Cn2cc(I)cn2)c1,0,1.266
CNC(=O)[C@@H]1CCO[C@@H]2CCN(Cc3ccsc3)C[C@H]21,2.941,4.5
Cn1ccnc1CN1CCOC(Cc2ccccc2)C1 (stereo not drawn),7.752,3.558
COc1c(CNC(c2ccc(F)cc2)c2nccn2C)c(C)nn1C (stereo not drawn),-0.3802,3.191
Cc1ccc(N2CCC3(CCN(C(=O)N(C)C)CC3)CC2)nn1,4,2.335
Cc1cc(C(=O)NCC2COCc3c(C)nnn3C2)no1 (stereo not drawn),-0.8368,8.182
CCOc1ccc(N(CCC#N)C(=O)c2ccc(SC)nc2)cc1,5.419,1.29
CCOc1ccccc1-c1noc(CN(C)Cc2cnn(C)c2)n1,0.8333,-2.772
CN(C)CCOCc1nnc2n1CCN(Cc1ccoc1)CC2,5.714,-5.302
CC(NC(=O)CCCc1nc(C(C)(C)C)no1)c1ccccn1 (stereo not drawn),1.183,2.408
O=S(=O)(C1CC1)N1CCOC2(COCCN(c3ncccn3)C2)C1 (stereo not drawn),1.149,7.943
CCN1CCc2[nH]cnc2C12CCN(c1ccc(Cl)cn1)CC2,10.5,-8.696
CC(C)CNS(=O)(=O)c1ccc(C(=O)N(C)CCc2cn[nH]c2)cc1,7.182,0.8929
Cc1cccc(Oc2ccccc2CNC(=O)C2CCNC(=O)C2)c1 (stereo not drawn),9.091,-8.081
O=C1Nc2ccccc2NC12CCN(Cc1nnc(C3CC3)o1)CC2,-0.6452,1.449

For reference, 7 entries once more:

{"structure": "Cc1ccc(NCc2cnc3n2CCN(c2ncccn2)CC3)nn1", "TcHisRS": 3.738, "CoaBC": -4.198}
{"structure": "Cc1nc2c(c(N3CC=CC3)n1)CCN(c1ncccc1C(N)=O)CC2", "TcHisRS": 0.5236, "CoaBC": -3.086}
{"structure": "Cc1cnn(CC2CN(CCc3ccncc3)CCO2)c1", "stereo": "stereo not drawn", "TcHisRS": 0, "CoaBC": -0.2132}
{"structure": "CC(NC(=O)CCCc1nc(C(C)(C)C)no1)c1ccccn1", "stereo": "stereo not drawn", "TcHisRS": 1.183, "CoaBC": 2.408}
{"structure": "CN(C)C(=O)c1cc2c(nc1NCC1CC1)CCNCC2", "TcHisRS": 3.738, "CoaBC": 0.7407}
{"structure": "CN1CCC(NC(=O)c2cc(Cl)cc(Br)c2O)C1=O", "stereo": "stereo not drawn", "TcHisRS": 13.07, "CoaBC": -1.294}
{"structure": "O=C(COCC1CC1)Nc1ncccc1I", "TcHisRS": 9.052, "CoaBC": 4.689}

Source: ChEMBL document CHEMBL3988442, “University of Dundee, Small-Polar-MMV Screening Library” (2021).